Test results: publication doi:10.1101/059964
These are yes or no findings as the source states them, for the method shown. In cells and extracts the contact can be indirect. Here binding means that the protein was enriched with, or labelled near, the bait; the list need not be complete. For some assays here: No binding means not detected with the bait. One block for each binder: values may come before it.

Sequences of proteins named here, by UniProt entry; tags and fusion partners are left off.
UniProt Q92560: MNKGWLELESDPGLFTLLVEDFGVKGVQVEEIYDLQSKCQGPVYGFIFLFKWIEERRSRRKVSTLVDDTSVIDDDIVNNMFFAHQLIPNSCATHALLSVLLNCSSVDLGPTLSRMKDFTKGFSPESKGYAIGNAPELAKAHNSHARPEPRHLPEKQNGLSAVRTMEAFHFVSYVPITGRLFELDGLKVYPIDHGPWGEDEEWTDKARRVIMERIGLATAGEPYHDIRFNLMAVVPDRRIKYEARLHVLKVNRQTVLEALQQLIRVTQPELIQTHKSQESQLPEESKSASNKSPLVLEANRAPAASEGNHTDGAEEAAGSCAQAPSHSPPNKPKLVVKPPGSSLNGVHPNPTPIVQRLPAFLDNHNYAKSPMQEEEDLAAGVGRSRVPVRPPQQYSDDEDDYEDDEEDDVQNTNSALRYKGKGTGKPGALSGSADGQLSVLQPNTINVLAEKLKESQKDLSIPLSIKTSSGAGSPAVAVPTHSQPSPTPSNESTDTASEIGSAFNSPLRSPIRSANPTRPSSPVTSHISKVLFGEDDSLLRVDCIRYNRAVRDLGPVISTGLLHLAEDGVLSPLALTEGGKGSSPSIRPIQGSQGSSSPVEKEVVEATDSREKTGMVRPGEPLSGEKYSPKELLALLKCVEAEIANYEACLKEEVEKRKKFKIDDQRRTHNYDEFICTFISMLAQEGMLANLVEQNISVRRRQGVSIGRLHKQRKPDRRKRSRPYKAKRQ
UniProt Q8IXJ9: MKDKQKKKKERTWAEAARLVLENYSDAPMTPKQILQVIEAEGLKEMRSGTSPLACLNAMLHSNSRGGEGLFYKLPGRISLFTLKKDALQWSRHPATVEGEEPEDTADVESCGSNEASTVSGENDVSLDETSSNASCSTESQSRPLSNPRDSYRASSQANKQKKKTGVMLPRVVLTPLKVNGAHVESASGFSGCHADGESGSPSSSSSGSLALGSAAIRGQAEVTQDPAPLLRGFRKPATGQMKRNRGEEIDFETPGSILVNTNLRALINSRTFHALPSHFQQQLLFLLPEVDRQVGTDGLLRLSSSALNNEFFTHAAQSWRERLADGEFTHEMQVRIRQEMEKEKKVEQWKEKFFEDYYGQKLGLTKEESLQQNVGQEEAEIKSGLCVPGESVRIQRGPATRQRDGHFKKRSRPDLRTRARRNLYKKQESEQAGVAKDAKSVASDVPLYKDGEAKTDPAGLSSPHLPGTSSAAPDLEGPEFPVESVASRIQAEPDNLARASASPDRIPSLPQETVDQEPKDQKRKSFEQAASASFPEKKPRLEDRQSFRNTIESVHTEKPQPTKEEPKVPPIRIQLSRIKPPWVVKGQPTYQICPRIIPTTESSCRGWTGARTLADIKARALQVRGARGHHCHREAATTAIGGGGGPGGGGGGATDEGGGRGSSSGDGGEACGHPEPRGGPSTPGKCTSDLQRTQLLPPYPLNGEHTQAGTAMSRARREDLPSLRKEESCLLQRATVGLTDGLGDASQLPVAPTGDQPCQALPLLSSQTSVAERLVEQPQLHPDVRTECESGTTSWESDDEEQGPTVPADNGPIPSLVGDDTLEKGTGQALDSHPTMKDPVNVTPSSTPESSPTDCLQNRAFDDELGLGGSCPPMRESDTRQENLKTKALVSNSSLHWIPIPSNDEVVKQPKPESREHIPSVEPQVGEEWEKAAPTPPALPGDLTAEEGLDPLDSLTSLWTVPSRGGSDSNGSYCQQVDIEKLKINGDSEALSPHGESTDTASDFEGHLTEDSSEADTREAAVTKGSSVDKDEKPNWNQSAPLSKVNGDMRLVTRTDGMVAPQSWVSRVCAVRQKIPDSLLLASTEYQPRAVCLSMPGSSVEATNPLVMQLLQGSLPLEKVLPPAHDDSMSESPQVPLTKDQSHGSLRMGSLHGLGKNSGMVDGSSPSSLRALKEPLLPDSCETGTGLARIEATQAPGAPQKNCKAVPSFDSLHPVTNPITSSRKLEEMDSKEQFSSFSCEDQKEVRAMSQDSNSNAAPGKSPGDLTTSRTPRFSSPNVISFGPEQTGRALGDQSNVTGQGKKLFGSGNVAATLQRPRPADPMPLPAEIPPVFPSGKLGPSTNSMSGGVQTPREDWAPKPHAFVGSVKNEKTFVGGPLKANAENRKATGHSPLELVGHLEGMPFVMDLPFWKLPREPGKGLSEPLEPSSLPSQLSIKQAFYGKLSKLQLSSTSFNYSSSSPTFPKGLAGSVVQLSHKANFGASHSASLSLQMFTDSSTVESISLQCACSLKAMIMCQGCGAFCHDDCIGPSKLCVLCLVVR
UniProt Q76L83: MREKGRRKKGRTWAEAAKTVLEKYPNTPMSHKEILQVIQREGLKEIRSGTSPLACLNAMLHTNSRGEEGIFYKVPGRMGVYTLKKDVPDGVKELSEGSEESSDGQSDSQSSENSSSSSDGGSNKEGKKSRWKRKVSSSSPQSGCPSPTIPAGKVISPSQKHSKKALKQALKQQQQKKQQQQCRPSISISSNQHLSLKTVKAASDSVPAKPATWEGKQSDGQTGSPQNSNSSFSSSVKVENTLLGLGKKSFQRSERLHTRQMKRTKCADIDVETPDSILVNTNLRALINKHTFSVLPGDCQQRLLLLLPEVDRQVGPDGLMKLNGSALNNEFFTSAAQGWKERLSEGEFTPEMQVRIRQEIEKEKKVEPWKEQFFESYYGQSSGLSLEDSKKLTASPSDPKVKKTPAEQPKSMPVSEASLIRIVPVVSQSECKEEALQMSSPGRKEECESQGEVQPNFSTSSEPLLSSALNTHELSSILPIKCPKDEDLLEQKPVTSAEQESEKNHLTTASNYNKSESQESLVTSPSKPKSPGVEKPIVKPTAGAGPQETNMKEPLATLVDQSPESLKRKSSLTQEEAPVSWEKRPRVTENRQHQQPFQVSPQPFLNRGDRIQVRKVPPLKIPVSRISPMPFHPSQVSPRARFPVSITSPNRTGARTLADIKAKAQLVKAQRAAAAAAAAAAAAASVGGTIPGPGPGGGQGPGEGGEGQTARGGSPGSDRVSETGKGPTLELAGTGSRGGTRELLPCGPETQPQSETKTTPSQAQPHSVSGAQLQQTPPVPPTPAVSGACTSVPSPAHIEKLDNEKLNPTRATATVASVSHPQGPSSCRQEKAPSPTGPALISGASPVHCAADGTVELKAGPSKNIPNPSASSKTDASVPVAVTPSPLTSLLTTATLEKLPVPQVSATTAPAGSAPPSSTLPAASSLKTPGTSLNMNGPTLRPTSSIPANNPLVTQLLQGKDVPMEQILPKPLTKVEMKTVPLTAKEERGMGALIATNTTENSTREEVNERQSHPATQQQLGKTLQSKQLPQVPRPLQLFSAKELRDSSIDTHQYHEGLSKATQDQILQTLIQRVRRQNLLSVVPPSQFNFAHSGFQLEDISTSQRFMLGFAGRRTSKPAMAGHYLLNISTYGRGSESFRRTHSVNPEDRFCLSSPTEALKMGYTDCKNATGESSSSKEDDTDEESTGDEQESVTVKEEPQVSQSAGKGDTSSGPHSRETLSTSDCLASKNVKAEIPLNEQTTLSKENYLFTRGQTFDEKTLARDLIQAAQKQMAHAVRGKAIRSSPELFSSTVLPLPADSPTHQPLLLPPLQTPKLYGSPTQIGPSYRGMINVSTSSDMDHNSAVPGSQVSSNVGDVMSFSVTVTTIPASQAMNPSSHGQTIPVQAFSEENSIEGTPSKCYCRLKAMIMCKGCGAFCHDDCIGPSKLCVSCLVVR

How the values were obtained:
Assay in all cases: affinity purification with mass spectrometry
BAP1 (human) = BAP1 (human) (UniProt Q92560)
OGT1 (human) = target: T1, OGT1 (human) (UniProt O15294)
T1 sequence: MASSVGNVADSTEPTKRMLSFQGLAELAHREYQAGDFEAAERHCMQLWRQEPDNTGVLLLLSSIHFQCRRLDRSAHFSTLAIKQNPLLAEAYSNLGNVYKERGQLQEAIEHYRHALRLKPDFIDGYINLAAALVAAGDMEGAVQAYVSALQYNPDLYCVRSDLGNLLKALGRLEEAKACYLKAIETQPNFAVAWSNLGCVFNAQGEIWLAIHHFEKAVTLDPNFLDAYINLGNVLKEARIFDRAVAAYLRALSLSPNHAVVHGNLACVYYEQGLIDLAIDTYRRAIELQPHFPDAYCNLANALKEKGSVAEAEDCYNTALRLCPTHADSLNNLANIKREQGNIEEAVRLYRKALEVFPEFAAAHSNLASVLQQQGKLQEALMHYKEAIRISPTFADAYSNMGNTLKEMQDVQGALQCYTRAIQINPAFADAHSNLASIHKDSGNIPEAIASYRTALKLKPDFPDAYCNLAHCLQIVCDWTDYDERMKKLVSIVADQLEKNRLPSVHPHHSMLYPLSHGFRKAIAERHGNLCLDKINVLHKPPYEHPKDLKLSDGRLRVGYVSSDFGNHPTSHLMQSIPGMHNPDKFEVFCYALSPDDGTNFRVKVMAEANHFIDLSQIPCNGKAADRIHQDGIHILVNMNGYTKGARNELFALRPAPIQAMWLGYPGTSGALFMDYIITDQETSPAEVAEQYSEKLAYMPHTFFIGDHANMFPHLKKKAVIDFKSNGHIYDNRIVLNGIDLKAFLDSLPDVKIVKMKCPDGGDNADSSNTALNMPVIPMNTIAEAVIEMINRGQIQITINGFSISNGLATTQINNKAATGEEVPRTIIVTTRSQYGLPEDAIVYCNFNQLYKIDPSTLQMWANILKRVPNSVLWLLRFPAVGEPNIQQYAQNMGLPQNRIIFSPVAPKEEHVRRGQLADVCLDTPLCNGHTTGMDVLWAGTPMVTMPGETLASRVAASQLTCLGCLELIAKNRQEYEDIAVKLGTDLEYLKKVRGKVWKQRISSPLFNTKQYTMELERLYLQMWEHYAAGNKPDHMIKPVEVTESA

ASXL1 (human) = ASXL1 (human) (UniProt Q8IXJ9)
ASXL2 (human) = ASXL2 (human) (UniProt Q76L83)
RING1 (human), Q06587 = target: T2, RING1 (human), Q06587; conditions: remark: other sources report otherwise
T2 chain: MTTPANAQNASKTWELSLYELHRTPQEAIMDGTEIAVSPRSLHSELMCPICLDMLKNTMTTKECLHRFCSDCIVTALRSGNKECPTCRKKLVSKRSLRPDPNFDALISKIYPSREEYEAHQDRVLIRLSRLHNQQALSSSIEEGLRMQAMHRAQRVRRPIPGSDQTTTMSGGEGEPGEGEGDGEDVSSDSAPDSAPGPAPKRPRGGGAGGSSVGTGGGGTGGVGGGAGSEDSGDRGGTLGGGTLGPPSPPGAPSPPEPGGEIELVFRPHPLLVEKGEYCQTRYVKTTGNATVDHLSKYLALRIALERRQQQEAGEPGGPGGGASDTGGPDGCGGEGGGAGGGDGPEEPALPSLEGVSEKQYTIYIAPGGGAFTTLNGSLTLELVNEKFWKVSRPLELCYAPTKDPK

binding (BAP1 (human)): binds
binding (OGT1 (human)): no binding
B1: MBD5 (protein, UniProt Q9P267 1-1494)
chain: MNGGKECDGGDKEGGLPAIQVPVGWQRRVDQNGVLYVSPSGSLLSCLEQVKTYLLTDGTCKCGLECPLILPKVFNFDPGAAVKQRTAEDVKADEDVTKLCIHKRKIIAVATLHKSMEAPHPSLVLTSPGGGTNATPVVPSRAATPRSVRNKSHEGITNSVMPECKNPFKLMIGSSNAMGRLYVQELPGSQQQELHPVYPRQRLGSSEHGQKSPFRGSHGGLPSPASSGSQIYGDGSISPRTDPLGSPDVFTRSNPGFHGAPNSSPIHLNRTPLSPPSVMLHGSPVQSSCAMAGRTNIPLSPTLTTKSPVMKKPMCNFSTNMEIPRAMFHHKPPQGPPPPPPPSCALQKKPLTSEKDPLGILDPIPSKPVNQNPVIINPTSFHSNVHSQVPMMNVSMPPAVVPLPSNLPLPTVKPGHMNHGSHVQRVQHSASTSLSPSPVTSPVHMMGTGIGRIEASPQRSRSSSTSSDHGNFMMPPVGPQATSSGIKVPPRSPRSTIGSPRPSMPSSPSTKSDGHHQYKDIPNPLIAGISNVLNTPSSAAFPTASAGSSSVKSQPGLLGMPLNQILNQHNAASFPASSLLSAAAKAQLANQNKLAGNNSSSSSNSGAVAGSGNTEGHSTLNTMFPPTANMLLPTGEGQSGRAALRDKLMSQQKDALRKRKQPPTTVLSLLRQSQMDSSAVPKPGPDLLRKQGQGSFPISSMSQLLQSMSCQSSHLSSNSTPGCGASNTALPCSANQLHFTDPSMNSSVLQNIPLRGEAVHCHNANTNFVHSNSPVPNHHLAGLINQIQASGNCGMLSQSGMALGNSLHPNPPQSRISTSSTPVIPNSIVSSYNQTSSEAGGSGPSSSIAIAGTNHPAITKTTSVLQDGVIVTTAAGNPLQSQLPIGSDFPFVGQEHALHFPSNSTSNNHLPHPLNPSLLSSLPISLPVNQQHLLNQNLLNILQPSAGEGDMSSINNTLSNHQLTHLQSLLNNNQMFPPNQQQQQLLQGYQNLQAFQGQSTIPCPANNNPMACLFQNFQVRMQEDAALLNKRISTQPGLTALPENPNTTLPPFQDTPCELQPRIDPSLGQQVKDGLVVGGPGDASVDAIYKAVVDAASKGMQVVITTAVNSTTQISPIPALSAMSAFTASIGDPLNLSSAVSAVIHGRNMGGVDHDGRLRNSRGARLPKNLDHGKNVNEGDGFEYFKSASCHTSKKQWDGEQSPRGERNRWKYEEFLDHPGHIHSSPCHERPNNVSTLPFLPGEQHPILLPPRNCPGDKILEENFRYNNYKRTMMSFKERLENTVERCAHINGNRPRQSRGFGELLSTAKQDLVLEEQSPSSSNSLENSLVKDYIHYNGDFNAKSVNGCVPSPSDAKSISSEDDLRNPDSPSSNELIHYRPRTFNVGDLVWGQIKGLTSWPGKLVREDDVHNSCQQSPEEGKVEPEKLKTLTEGLEAYSRVRKRNRKSGKLNNHLEAAIHEAMSELDKMSGTVHQIPQGDRQMRPPKPKRRKISR

binding (ASXL1 (human)): binds
binding (ASXL2 (human)): binds
B2: OGT1 (enzyme, UniProt O15294 1-1046)
chain: T1 sequence

binding (RING1 (human), Q06587): binds
B3: PCGF6, Q9BYE7 1-350 (protein)
chain: MEGVAVVTAGSVGAAKTEGAAALPPPPPVSPPALTPAPAAGEEGPAPLSETGAPGCSGSRPPELEPERSLGRFRGRFEDEDEELEEEEELEEEEEEEEEDMSHFSLRLEGGRQDSEDEEERLINLSELTPYILCSICKGYLIDATTITECLHTFCKSCIVRHFYYSNRCPKCNIVVHQTQPLYNIRLDRQLQDIVYKLVINLEEREKKQMHDFYKERGLEVPKPAVPQPVPSSKGRSKKVLESVFRIPPELDMSLLLEFIGANEGTGHFKPLEKKFVRVSGEATIGHVEKFLRRKMGLDPACQVDIICGDHLLEQYQTLREIRRAIGDAAMQDGLLVLHYGLVVSPLKIT
